Data from PubChem BioAssay AID504834 (National Center for Advancing Translational Sciences (NCATS), 2011).
Hit rate of the full screen: of about 320,000 compounds, about 22,000 (6.9%) were called active. This list was built around the results that the source calls inconclusive (neither active nor inactive); the mix of calls is not that of the screen. The call rests on the fitted dose curve; in most records, active means well fitted inhibition curve with a large enough effect; inconclusive means small, poorly fitted or top-dose-only effect, or another doubt; inactive means no such curve, though single readings can be large or run the other way. Potencies beside an inconclusive call are fits to weak or partial responses and may not hold up.

assay: Primary qHTS for delayed death inhibitors of the malarial parasite plastid, 96 hour incubation; details: P. falciparum luciferase reporter growth; series mostly up to 28.7 µM
Procedure, shortened: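 Plates of compound plus infected erythrocytes (2% hematocrit, 0.05% parasitemia final) incubate 96 hours, 37 C, 5% CO2. Detection reagent added; reduced luminescence from the parasites' luciferase reporter flags inhibition.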
Potency means the concentration at half of the fitted maximal effect.

SMILES	Potency
CCOc1ccc(Nc2cc3n(c(=O)n2)CCc2cc(OC)c(OC)cc2-3)cc1	inconclusive: 10.4 µM [inhibitor, partial curve, poor fit]
CCOC(=O)c1cnc2ccccc2c1Nc1ccc(C(=O)O)cc1	inconclusive: 2.62 µM [inhibitor, partial curve, poor fit]
Cn1c(CN2CCCCC2)nc2cc(NC(=O)c3ccc(F)cc3)ccc21	inconclusive: 13.1 µM [inhibitor, single point]
Cc1ccc(NC(=O)c2ccc(Cl)c(S(=O)(=O)NCC3CCCO3)c2)c(O)c1 (stereo not drawn)	active: 6.57 µM
O=C(CCn1nnc2ccccc21)Nc1nnc(Cc2ccccc2)s1	inconclusive: 0.37 µM [inhibitor, partial curve, poor fit]
COc1ccc(-n2c(O)c(/C(C)=N/Nc3ccccc3)c(=O)[nH]c2=O)cc1	inconclusive: 1.47 µM [inhibitor, partial curve, poor fit]
Oc1cccc(C=NCc2ccccc2)c1O	inconclusive: 18.5 µM [inhibitor, single point]
O=C(NCC1CCN(Cc2ccccc2Cl)CC1)Nc1cccc(Cl)c1	active: 1.65 µM
COc1ccc(Cl)cc1NC(=O)NCc1ccco1	inconclusive: 2.62 µM [inhibitor, full curve, poor fit]
O=C(NC(=S)NNC(=O)c1cccs1)c1ccco1	inconclusive: 11.7 µM [inhibitor, partial curve, poor fit]
Nc1cc(-c2ccccc2)ccc1O	active: 11.7 µM
Cc1nnc2ccc(-c3cccc(NC(=O)c4ccc(Br)o4)c3)nn12	inconclusive: 10.4 µM [inhibitor, partial curve, poor fit]
N[C@@H](Cc1ccccc1)C(=O)N1CCC(C(=O)N[C@@H](CCC(=O)O)C(=O)O)CC1	inactive
CC(C)CCN(C)C1CCN(S(=O)(=O)c2ccc(F)cc2)CC1	inactive
CCNC(=S)Nc1cc(Cl)ccc1Oc1ccccc1	inconclusive: 18.5 µM [inhibitor, single point]
CCCCCC(O)c1cccc(OCc2ccc3ccccc3n2)c1 (stereo not drawn)	inconclusive: 13.1 µM [inhibitor, single point]
COc1ccc(Nc2ccc(C(F)(F)F)cc2[N+](=O)[O-])cn1	inactive
Cc1ccc(CNC(=O)CCS(=O)(=O)c2ccc3c(c2)CC(C)N3C(=O)C2CC2)o1 (stereo not drawn)	active: 11.7 µM
COC(=O)c1cc(Cn2nc(C(=O)O)c3ccccc3c2=O)oc1C	inconclusive: 1.31 µM [inhibitor, partial curve, poor fit]
CC(=O)N1C(=O)NC(c2ccccc2)=C([N+](=O)[O-])C1c1ccccc1 (stereo not drawn)	inconclusive: 18.5 µM [inhibitor, single point]
CSc1nnc(C(C)(C)C)c(=O)n1/N=C/c1ccc(Cl)cc1	inconclusive: 0.415 µM [inhibitor, partial curve, poor fit]
COc1ccc(-c2nc(NC(=O)c3ccc(OCC(=O)Nc4ccc(F)cc4)c(OC)c3)sc2C)cc1	inconclusive: 11.7 µM [inhibitor, single point]
CC(C)N1CCc2c(sc(NC(=O)CCc3ccccc3)c2C(N)=O)C1	inconclusive: 18.5 µM [inhibitor, single point]

SMILES	Potency
O=C(Nc1ccccc1F)c1ccc(Cn2cc(Cl)cn2)cc1	inactive
O=[N+]([O-])c1ccc(C2Nc3cccc4cccc(c34)N2)cc1	active: 13.1 µM
O=C(CCN1C(=O)[C@@H]2Cc3ccccc3CN2C1=O)NCc1ccc(Cl)cc1	inconclusive: 18.5 µM [inhibitor, partial curve, poor fit]
O=[N+]([O-])c1ccc(/C=N/Nc2nc3ccccc3o2)cc1	active: 9.28 µM
COc1ccc(CN2C(=O)CC(=O)NC2=S)cc1	inconclusive: 4.65 µM [inhibitor, full curve, poor fit]
CCOc1ccc(NC(=O)C(C)Oc2ccc(C#N)cc2)cc1S(=O)(=O)N1CCCC1 (stereo not drawn)	inconclusive: 10.4 µM [inhibitor, single point]
COc1cccc(NC(=S)N(CCc2c(C)[nH]c3ccc(C)cc23)Cc2cccs2)c1	inconclusive: 18.5 µM [inhibitor, partial curve, poor fit]
C/C(=N/NC(=O)c1ccoc1C)c1cccc(NC(=O)C(F)(F)F)c1	inactive
CCC(C)NC(=O)C1CCCN(S(=O)(=O)c2ccc3c(c2)CC(C)N3C(=O)C2CC2)C1 (stereo not drawn)	inconclusive: 2.94 µM [inhibitor, single point]
O=Cc1c(N2CCN(CCO)CC2)nc2ccccn2c1=O	active: 10.4 µM
CCN(CC)c1ccc(C(=O)OCC(=O)Nc2cccc(S(=O)(=O)NC3=NCCCCC3)c2)cc1	inconclusive: 18.5 µM [inhibitor, single point]
Cc1cc2ncn(/N=C/c3ccc([N+](=O)[O-])o3)c2cc1C	active: 4.65 µM
CCN(CC)S(=O)(=O)c1ccc(C(=O)NCCc2cc3c(OC)ccc(OC)c3[nH]c2=O)cc1	inconclusive: 11.7 µM [inhibitor, single point]
CCCc1ccc(OCCNC(=O)C2CCCCC2)cc1	inconclusive: 2.94 µM [inhibitor, full curve]
COc1ccc(CN2C(=O)Cc3c2nc(N)c2c(N)nc(N4CCCCC4)c(C#N)c32)cc1	inconclusive: 1.04 µM [inhibitor, full curve]
COc1ccc(N2CCN(CC(=O)Nc3cccc(S(=O)(=O)N4CCOCC4)c3)CC2)cc1	inconclusive: 11.7 µM [inhibitor, single point]
CCOC(=O)C1CCN(C(=O)c2ccc(OC3CCN(C(=O)COC)CC3)cc2)CC1	inactive
N#C/C(=C1/CCCCCN1)c1nc2ccccc2s1	inconclusive: 0.0033 µM [inhibitor, full curve, poor fit]
O=C(NCCc1cccc(C(F)(F)F)c1)C1CCC(=O)N(CCc2cccc(F)c2)C1 (stereo not drawn)	inactive
CSc1cccc(NC(=O)c2ccc(NC3=NC4CS(=O)(=O)CC4S3)cc2)c1 (stereo not drawn)	inactive
CCOc1ccc(C2c3[nH]c4ccccc4c3CCN2CCCn2cccn2)cc1 (stereo not drawn)	inconclusive: 8.28 µM [inhibitor, single point]
Cc1cc(O)c(C(C)C)cc1C1(c2cc(C(C)C)c(O)cc2C)OC(=O)c2ccccc21	active: 1.17 µM
COc1ccc2c(C)c(C(=O)N3CC[C@@H](N4CCC(O)CC4)[C@H](O)C3)oc2c1	inactive

SMILES	Potency
O=C1C=C(Nc2ccccc2)C(=O)c2ccccc21	active: 2.33 µM
COc1ccc([N+](=O)[O-])cc1N(CC(=O)NC(C(C)C)C(C)C)S(C)(=O)=O	inconclusive: 13.1 µM [inhibitor, single point]
CN(C)C(CNc1ccc(C(F)(F)F)cn1)c1ccccc1 (stereo not drawn)	inactive
COC(=O)c1ccc(N2CCN(C)CC2)c(NC(=O)c2ccc(-c3ccc(Cl)cc3)o2)c1	inconclusive: 10.4 µM [inhibitor, partial curve, poor fit]
CCN(CC)CCNC(=O)C1c2cc(OC)c(OC)cc2C(=O)N(C)C1c1cccs1 (stereo not drawn)	inconclusive: 9.28 µM [inhibitor, single point]
Cc1cccc(C)c1NC(=O)CS(=O)CC(=O)NC1CCCc2ccccc21 (stereo not drawn)	inconclusive: 9.28 µM [inhibitor, single point]
COc1ccc(C(=O)/C=C/c2ccc(N3CCCCC3)c([N+](=O)[O-])c2)c(OC)c1	inconclusive: 18.5 µM [inhibitor, single point]
CCNC(=O)CC1C(=O)N(C)C(=S)N1NC(=O)c1ccc(Cl)cc1 (stereo not drawn)	inactive
COc1cnc(-c2ccccc2)nc1Oc1ccc(C(C)(C)C)cc1	inconclusive: 11.7 µM [inhibitor, single point]
CCCn1nc(C(=O)NNC(=O)c2cc(S(=O)(=O)NC)ccc2Br)c2ccccc2c1=O	inactive
COc1ccc(CNC(=O)c2cc(-c3ccco3)on2)cc1	inactive
NC(=O)C1CCN(C(=O)CCSCc2ccc(Cl)c(Cl)c2)CC1	inconclusive: 4.15 µM [inhibitor, single point]
O=C(CCn1c(=O)c2cccn2c2cccnc21)N1CCN(c2cccc(Cl)c2)CC1	inconclusive: 0.0738 µM [inhibitor, full curve, poor fit]
COc1cccc(CN(C)CC(=O)Nc2cc(S(=O)(=O)N3CCCC3)ccc2Cl)c1OC	inconclusive: 9.28 µM [inhibitor, partial curve, poor fit]
CC(C)CCSc1nc2c(c(=O)[nH]c(=O)n2C)n1CCCc1ccccc1	active: 5.86 µM
CC(C)(C)Nc1nc(NCc2cccnc2)nc(N2CCOCC2)n1	inconclusive: 1.65 µM [inhibitor, full curve, poor fit]
CSc1ccccc1OCc1cc(C(=O)N(Cc2nccn2C)C(C)C)no1	inactive
Cc1[nH]c2ccccc2c1C(=O)C(=O)NCCCc1ccccc1	inconclusive: 18.5 µM [inhibitor, single point]
COCC(=O)Oc1c(Sc2ccccc2[N+](=O)[O-])c(C)nn1C(C)(C)C	inconclusive: 18.5 µM [inhibitor, single point]
COc1ccc2[nH]c(=O)c(CN(C(C)=O)c3cccc(C)c3)cc2c1	inconclusive: 18.5 µM [inhibitor, single point]
O=c1cc(CN2CCN(c3ccccc3F)CC2)c2cc(O)c(-c3ccccc3)cc2o1	active: 2.33 µM
O=C(c1ccc(N2CCCC2=O)cc1)N1CCN(c2ccccc2)CC1	inconclusive: 4.15 µM [inhibitor, full curve, poor fit]

Individual results from the entries so far:
Cc1cc2ncn(/N=C/c3ccc([N+](=O)[O-])o3)c2cc1C | Potency: active: 4.65 µM
O=C(c1ccc(N2CCCC2=O)cc1)N1CCN(c2ccccc2)CC1 | Potency: inconclusive: 4.15 µM [inhibitor, full curve, poor fit]
Cc1nnc2ccc(-c3cccc(NC(=O)c4ccc(Br)o4)c3)nn12 | Potency: inconclusive: 10.4 µM [inhibitor, partial curve, poor fit]
